In all, about 71,000 compounds went through this assay and about 310 (0.44%) were called active. Inconclusive results, whose numbers are uncertain, are shown with a selection of clear calls. Calls follow the shape of the dose curve; as a rule, active = well fitted curve in either direction with a large enough effect; inconclusive = small, poorly fitted or top-dose-only effect, or another doubt; inactive = flat fitted curve, though single readings scatter. Potencies beside an inconclusive call are fits to weak or partial responses and may not hold up.
What follows are molecules tested on Hsp90 C-terminal peptide / TPR2A (Hop) interaction, human (assay: qHTS Assay for Disrupters of an Hsp90 Co-Chaperone Interaction). Conditions: AlphaScreen TPR2A-His6 binding biotin-Hsp90 C-terminal peptide; activity change, negative = inhibition: at 57 µM (top of the series) unless noted.
% is scaled to controls: 0 for no effect and ±100 for the full control effect; potency is read from the fitted curve at half-maximal effect.

SMILES	Potency	activity change, negative = inhibition
Cn1cccc1C(=O)N1CCC2(CC1)CN(C(c1ccccc1)c1ccccc1)C2	inconclusive: 31.6 µM [inhibitor, single point]	–
COc1cc(OC)cc(-c2nc3cc(C)ccc3o2)c1	inconclusive: 39.8 µM [activator, single point]	–
c1ccc(N2CCN(c3ccccc3)C2c2cccs2)cc1	inconclusive: 25.1 µM [activator, single point]	–
CC(C)CC(C(=O)Nc1oc(-c2ccco2)c(-c2ccco2)c1C#N)N1C(=O)c2ccccc2C1=O (configuration not stated)	–	inconclusive: 8.04%
CCOC(=O)C1=C(C)SC2=NS(=O)(=O)CCN21	–	inconclusive: 47.7%
CC(C)(C)c1nc(CN2CCOCC2)ccc1O	–	inconclusive: 73.4%
CC(=O)Nc1ccc(NS(=O)(=O)C(F)(F)F)cc1	–	inconclusive: 44.4%
COc1cc2cc(Oc3ccc4ccc(=O)oc4c3)c(=O)oc2cc1O	–	inactive
CN(C)c1ncc2nc(-c3ccccc3)c(=O)n(C3CC3)c2n1	active: 20 µM [activator]	–
CCOC(=O)c1ccc(NC(=O)Nc2c(C)nn(C)c2C)cc1	–	inconclusive: 45.7%
N#CCCn1c(=O)cnc2cnc(Nc3ccccc3)nc21	–	inactive
c1ccc2oc(-c3nn4c(Cn5cnc6ccccc65)nnc4s3)cc2c1	–	inconclusive: 43.2%
CN1CCN(c2nc(-c3cccnc3)nc3ccccc23)CC1	–	inactive
Cc1ccnc(NC(=O)Nc2ccc(F)cc2)c1	–	inconclusive: 35.6%
COc1ccc(-n2c(=O)c(C)nc3cnc(Oc4ccccc4)nc32)cc1	–	inactive
CCOC(=O)c1c(NC(=O)C(F)(OC)C(F)(F)F)sc2c1CCN(C)C2 (configuration not stated)	–	inactive
Cc1cccc(-n2c(SCC(=O)N3CCCC3)nnc2-c2ccccn2)c1C	inconclusive: 31.6 µM [inhibitor, partial curve]	–
COC(=O)c1ccccc1Nc1ccccc1	inconclusive: 31.6 µM [activator, single point]	–
CN(CCCNC(=O)c1cn(C)c2ccc(S(=O)(=O)N(C)C)cc2c1=O)c1ccccc1	–	inactive

Structural class, the compounds so far with a thiophene ring, fused or not (2)
SMILES	Potency	activity change, negative = inhibition
c1ccc(N2CCN(c3ccccc3)C2c2cccs2)cc1	inconclusive: 25.1 µM [activator, single point]	–
CCOC(=O)c1c(NC(=O)C(F)(OC)C(F)(F)F)sc2c1CCN(C)C2 (configuration not stated)	–	inactive

(continued)

SMILES	Potency	activity change, negative = inhibition
N#CCc1nc(CSc2nc3ccccc3s2)cs1	–	inactive
CN=C(NC#N)Nc1ccc(C2=NNC(=O)C[C@@H]2C)cc1	–	inactive
CCOc1ccccc1NC(=O)CSc1nccn1-c1ccccc1	inconclusive: 20 µM [inhibitor, partial curve]	–
C=CCN1C(=O)/C(=C2\SC(N3CCOCC3)=NC2=O)c2cc(Br)ccc21	–	inconclusive: 46.4%
CCC[C@@H]1C[C@@]1(CCC)C(NC(=O)c1ccccc1)c1cccc(Cl)c1 (some centres not stated)	–	inactive
c1ccc(-c2cc3c(nn2)CCc2nonc2-3)cc1	–	inconclusive: 53%
O=c1c2ccccc2nc2n1CCC2	–	inconclusive: 21.2%
CC(C)C(NC(=O)C1CCCCC1)C(=O)Nc1ccccn1 (configuration not stated)	–	inconclusive: 40.9%
Oc1ccccc1NCC(O)Cn1ccc2ccccc21 (configuration not stated)	inconclusive: 25.1 µM [inhibitor, single point]	–
CN(C)c1nc(N)nc(Nc2ccccc2C#N)n1	–	inconclusive: 45.4%
CN(C)c1ccc(NC(=O)Cn2cc3c(n2)CCCC3)cc1	inconclusive: 31.6 µM [inhibitor, single point]	–
O=C(O)c1ccc(N2CCCCCC2)c(N2C(=O)c3ccccc3C2=O)c1	–	inconclusive: 54.6% [at 11 µM]
O=C(CC1Nc2ccccc2NC1=O)NCc1cccnc1 (configuration not stated)	–	inactive
O=C(O)CCNS(=O)(=O)c1ccc2c(c1)Cc1ccccc1-2	–	inactive
Cn1c(C(=O)N(Cc2ccccc2)Cc2cccs2)cc2sccc21	inconclusive: 39.8 µM [inhibitor, single point]	–
COc1ccc(OC)c(NC(=O)C2CCC(CNc3c(N4CCC(C)CC4)c(=O)c3=O)CC2)c1 (configuration not stated)	–	inactive
COC(=O)Cc1cc(=O)n(-c2nc3ccccc3[nH]2)[nH]1	active: 7.94 µM	–
O=C(O)C1Nc2c(O)cccc2C2C=CCC12 (configuration not stated)	active: 25.1 µM	–
CN(C(=O)CSc1nnnn1-c1ccccc1)C1CCCCC1	–	inconclusive: 48.5%

SMILES	Potency	activity change, negative = inhibition
CC(=O)[C@H](C(=N)C#N)C(=O)Nc1ccccc1	–	inactive: -2.18% [at 11 µM]
COc1ccccc1C(=O)NCCn1cc(SCC(=O)Nc2cc(C)on2)c2ccccc21	–	inconclusive: 27.1%
Cc1nc2c3cnn(-c4ccc(C)c(C)c4)c3ncn2n1	–	inactive
CCOc1ccc(C2=Nn3c(nnc3-c3ccccc3)SC2)cc1Cl	–	inactive
COC(=O)c1ccccc1NC(=O)COC(C)=O	–	inconclusive: 34.8%
COc1ccc(C(=O)NCc2cn3c(C)csc3n2)cc1OC	–	inconclusive: 46.3%
Cc1sc(N)c(C(=O)c2cccc(C(F)(F)F)c2)c1C	inconclusive: 39.8 µM [inhibitor, single point]	–
OC(C#Cc1ccccn1)c1cccs1 (configuration not stated)	inconclusive: 25.1 µM [inhibitor, partial curve]	–
Cc1occc1C(=O)NC1CCCCCC1	–	inconclusive: 45.5%
COc1cccc(NC(=O)c2cccnc2)c1	–	inconclusive: 40.5%
O=C(O)CSc1nnc(Cn2nnc3ccccc32)n1CCc1ccccc1	–	inactive
COc1cccc(C2=CC(c3ccc(N(C)C)cc3)n3ncnc3N2)c1 (configuration not stated)	inconclusive: 31.6 µM [activator, single point]	–
O=C(c1ccco1)N1C(=O)c2cccc3c(S(=O)(=O)N4CCCC4)ccc1c23	–	inconclusive: 41.6%
COc1ccc(Br)cc1CNC(=O)C1CCN(S(=O)(=O)N2CCCC2)CC1	–	inconclusive: 44.3%
CCCSc1nc2c(c(=O)[nH]c(=O)n2C)n1CCc1ccccc1	–	inconclusive: 45.7%
CCOc1cc(C2C(C(=O)O)c3cc(OCC)c(OCC)cc3C(=O)N2C)ccc1O (configuration not stated)	–	inconclusive: 41%
CSC(=NCc1cccnc1)NS(=O)(=O)c1cccs1	–	inconclusive: 36.8%
CC(=O)Nc1ccc2nc(-c3ccccn3)[nH]c2c1	inconclusive: 31.6 µM [inhibitor, single point]	–
COc1ccc(N2CCN(C(c3cccs3)C(C)NS(=O)(=O)c3ccccc3)CC2)cc1 (configuration not stated)	inconclusive: 25.1 µM [inhibitor, single point]	–
